Results deposited as PubChem BioAssay AID1224830 (NIAID, 2016).
This is an unselected part of about 18,000 reagents tested. In the full data, about 2,900 (16%) are marked active. 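Calls are made per well; low scores hint the gene aids the LPS response, high scores that it dampens it.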 Unmarked entries are inactive. Repeated entries: four replicate wells of each siRNA pool.

- Assay: 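Host factors that control LPS-induced TNF expression in human macrophages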 (primary screen)
- System: human THP-1 monocytic leukaemia cells, TNF dual-luciferase reporter clone, PMA-differentiated to macrophage-like cells
- Reagent: siRNA pool against human genes, 50 nM
- Duration: LPS for 4 h, given about 3 days after siRNA transfection
- Challenge: bacterial LPS (TLR4 ligand), 10 ng/ml
- Detection: 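TNF firefly reporter luminescence divided by renilla, normalised to the plate median, then turned into a robust z-score for each replicate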
- Scale: TNF reporter robust z-score: higher = stronger TNF reporter response to LPS
- Hit rule: 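Each well counts as active if its z-score is over 2.8 or under -1.5; controls are left without a call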

After knock-down of CDH13 (GeneID 1012), the record shows TNF reporter robust z-score -0.53.
CDH13 (GeneID 1012) gave TNF reporter robust z-score -0.3.
Silencing of CDH13 (GeneID 1012) gave: TNF reporter robust z-score -0.89.
Against CDH13 (GeneID 1012) the deposit lists TNF reporter robust z-score -0.84.
VASN (GeneID 114990) scored TNF reporter robust z-score -0.67.
With knock-down of VASN (GeneID 114990), the screen gave TNF reporter robust z-score -0.91.
Against VASN (GeneID 114990), the entry reads TNF reporter robust z-score -0.26.
Knock-down of VASN (GeneID 114990) resulted in: TNF reporter robust z-score -0.76.
Depletion of BDH1 (GeneID 622) came out at: TNF reporter robust z-score 0.54.
Against BDH1 (GeneID 622) the deposit lists TNF reporter robust z-score 0.37.
Knock-down of BDH1 (GeneID 622) came out at: TNF reporter robust z-score 0.39.
Against BDH1 (GeneID 622) the deposit lists TNF reporter robust z-score 0.93.
After knock-down of ZER1 (GeneID 10444) the results were TNF reporter robust z-score 0.39.
With knock-down of ZER1 (GeneID 10444) the results were TNF reporter robust z-score 0.15.
After knock-down of ZER1 (GeneID 10444), the record shows TNF reporter robust z-score -0.75.
ZER1 (GeneID 10444) showed TNF reporter robust z-score -0.64.
Knock-down of INPP5B (GeneID 3633) gave: TNF reporter robust z-score 0.29.
Depletion of INPP5B (GeneID 3633) gave: TNF reporter robust z-score 0.74.
For INPP5B (GeneID 3633), the values are TNF reporter robust z-score -0.48.
With knock-down of INPP5B (GeneID 3633), the screen gave TNF reporter robust z-score 2.24.
C21orf58 (GeneID 54058) gave TNF reporter robust z-score -0.97.
Against C21orf58 (GeneID 54058), the values are TNF reporter robust z-score -1.22.
Depletion of C21orf58 (GeneID 54058) came out at: TNF reporter robust z-score -0.92.
With knock-down of C21orf58 (GeneID 54058), the record shows TNF reporter robust z-score -0.91.
For TMC7 (GeneID 79905), the values are TNF reporter robust z-score -1.66 (active).
With knock-down of TMC7 (GeneID 79905), the record shows TNF reporter robust z-score -0.92.
TMC7 (GeneID 79905) scored TNF reporter robust z-score -1.06.
After knock-down of TMC7 (GeneID 79905), the screen gave TNF reporter robust z-score -1.09.
After knock-down of ARHGAP45 (GeneID 23526), the screen gave TNF reporter robust z-score 0.06.
Knock-down of ARHGAP45 (GeneID 23526) gave: TNF reporter robust z-score -0.11.
Silencing of ARHGAP45 (GeneID 23526) resulted in: TNF reporter robust z-score -0.36.
ARHGAP45 (GeneID 23526) scored TNF reporter robust z-score 0.82.
After knock-down of EXD1 (GeneID 161829), the record shows TNF reporter robust z-score 0.42.
After knock-down of EXD1 (GeneID 161829), the record shows TNF reporter robust z-score -0.62.
For EXD1 (GeneID 161829), the entry reads TNF reporter robust z-score -0.13.
EXD1 (GeneID 161829) showed TNF reporter robust z-score -0.54.
With knock-down of CDH5 (GeneID 1003), the screen gave TNF reporter robust z-score 0.8.
CDH5 (GeneID 1003) gave TNF reporter robust z-score -0.67.
CDH5 (GeneID 1003) scored TNF reporter robust z-score -1.04.
After knock-down of CDH5 (GeneID 1003) the results were TNF reporter robust z-score -0.88.
With knock-down of HOPX (GeneID 84525) the results were TNF reporter robust z-score -0.34.
HOPX (GeneID 84525) scored TNF reporter robust z-score -0.93.
After knock-down of HOPX (GeneID 84525), the record shows TNF reporter robust z-score -0.12.
DNAJC6 (GeneID 9829) showed TNF reporter robust z-score 1.14.
Knock-down of DNAJC6 (GeneID 9829) gave: TNF reporter robust z-score 0.84.
For DNAJC6 (GeneID 9829) the deposit lists TNF reporter robust z-score 0.44.
Knock-down of DNAJC6 (GeneID 9829) resulted in: TNF reporter robust z-score 1.72.

Entries above whose target name begins with A or a (4):
ARHGAP45 (GeneID 23526) — TNF reporter robust z-score: 0.06
ARHGAP45 (GeneID 23526) — TNF reporter robust z-score: -0.11
ARHGAP45 (GeneID 23526) — TNF reporter robust z-score: -0.36
ARHGAP45 (GeneID 23526) — TNF reporter robust z-score: 0.82
